Results from the supplement of paper PMC10849652.
The list shows a part of the results.

By UniProt entry, the sequences of proteins in these tests, tags left out. Where a name states a change or a piece, a line headed by the entry shows the natural chain unless it says otherwise.
UniProt O75821, whole entry, looked up: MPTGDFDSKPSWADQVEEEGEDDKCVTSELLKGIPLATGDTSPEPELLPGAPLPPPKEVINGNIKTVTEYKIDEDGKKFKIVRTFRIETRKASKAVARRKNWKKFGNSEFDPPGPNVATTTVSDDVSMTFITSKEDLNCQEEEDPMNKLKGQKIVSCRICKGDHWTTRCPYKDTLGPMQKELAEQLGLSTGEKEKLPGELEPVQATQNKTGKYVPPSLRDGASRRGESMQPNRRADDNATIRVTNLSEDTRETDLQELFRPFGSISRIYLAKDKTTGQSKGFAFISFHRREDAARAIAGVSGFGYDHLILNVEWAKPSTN
UniProt P84090, whole entry, looked up: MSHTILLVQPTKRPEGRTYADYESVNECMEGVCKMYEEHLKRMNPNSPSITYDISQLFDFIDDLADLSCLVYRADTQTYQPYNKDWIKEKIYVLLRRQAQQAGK
UniProt Q9BQI3, whole entry, looked up: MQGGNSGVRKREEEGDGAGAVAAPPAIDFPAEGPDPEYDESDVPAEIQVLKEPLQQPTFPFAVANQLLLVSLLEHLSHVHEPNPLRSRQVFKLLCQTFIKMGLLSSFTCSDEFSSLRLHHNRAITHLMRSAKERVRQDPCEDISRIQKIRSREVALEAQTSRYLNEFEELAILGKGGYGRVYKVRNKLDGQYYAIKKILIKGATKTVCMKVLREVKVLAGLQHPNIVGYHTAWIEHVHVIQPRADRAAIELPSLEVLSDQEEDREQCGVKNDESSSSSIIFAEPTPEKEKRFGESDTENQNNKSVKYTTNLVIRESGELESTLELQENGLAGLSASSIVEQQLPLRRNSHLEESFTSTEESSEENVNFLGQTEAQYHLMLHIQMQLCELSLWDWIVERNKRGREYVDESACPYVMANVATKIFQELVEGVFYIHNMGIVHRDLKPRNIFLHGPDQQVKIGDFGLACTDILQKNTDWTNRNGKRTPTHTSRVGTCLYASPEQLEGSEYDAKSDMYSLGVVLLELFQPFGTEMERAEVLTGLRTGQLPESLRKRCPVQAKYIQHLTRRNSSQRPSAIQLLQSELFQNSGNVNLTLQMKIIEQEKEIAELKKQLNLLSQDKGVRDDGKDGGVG
UniProt O00303, whole entry, looked up: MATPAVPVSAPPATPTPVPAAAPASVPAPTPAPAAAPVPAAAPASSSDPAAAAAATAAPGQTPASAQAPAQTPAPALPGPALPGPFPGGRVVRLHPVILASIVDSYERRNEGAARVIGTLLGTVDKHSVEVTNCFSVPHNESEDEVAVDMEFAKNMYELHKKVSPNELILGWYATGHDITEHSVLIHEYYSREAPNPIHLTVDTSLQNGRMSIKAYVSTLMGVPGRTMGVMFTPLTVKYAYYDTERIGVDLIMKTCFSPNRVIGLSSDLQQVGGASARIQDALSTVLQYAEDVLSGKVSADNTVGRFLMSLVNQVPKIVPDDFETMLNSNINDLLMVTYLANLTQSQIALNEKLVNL
UniProt Q7L5Y1: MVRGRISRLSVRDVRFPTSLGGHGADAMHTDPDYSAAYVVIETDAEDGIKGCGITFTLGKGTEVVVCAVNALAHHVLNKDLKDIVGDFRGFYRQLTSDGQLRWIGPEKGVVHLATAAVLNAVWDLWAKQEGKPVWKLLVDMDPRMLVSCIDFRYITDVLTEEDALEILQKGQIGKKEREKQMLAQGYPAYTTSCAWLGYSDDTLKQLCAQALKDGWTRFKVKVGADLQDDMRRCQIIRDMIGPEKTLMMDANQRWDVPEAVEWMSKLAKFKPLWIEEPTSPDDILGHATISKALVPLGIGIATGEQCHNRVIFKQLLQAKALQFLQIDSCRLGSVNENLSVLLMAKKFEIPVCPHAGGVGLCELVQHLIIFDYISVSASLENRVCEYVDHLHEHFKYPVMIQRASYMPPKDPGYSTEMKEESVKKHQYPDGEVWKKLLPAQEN
UniProt P49770: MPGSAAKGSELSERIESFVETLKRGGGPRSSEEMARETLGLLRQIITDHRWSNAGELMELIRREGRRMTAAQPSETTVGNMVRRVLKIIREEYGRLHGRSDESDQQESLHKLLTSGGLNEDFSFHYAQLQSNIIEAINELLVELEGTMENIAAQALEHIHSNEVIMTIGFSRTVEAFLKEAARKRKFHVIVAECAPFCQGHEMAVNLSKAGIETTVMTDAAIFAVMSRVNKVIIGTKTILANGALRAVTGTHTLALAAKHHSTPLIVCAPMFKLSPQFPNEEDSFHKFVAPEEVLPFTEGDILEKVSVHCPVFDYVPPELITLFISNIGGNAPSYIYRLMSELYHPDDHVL
UniProt Q15717, whole entry, looked up: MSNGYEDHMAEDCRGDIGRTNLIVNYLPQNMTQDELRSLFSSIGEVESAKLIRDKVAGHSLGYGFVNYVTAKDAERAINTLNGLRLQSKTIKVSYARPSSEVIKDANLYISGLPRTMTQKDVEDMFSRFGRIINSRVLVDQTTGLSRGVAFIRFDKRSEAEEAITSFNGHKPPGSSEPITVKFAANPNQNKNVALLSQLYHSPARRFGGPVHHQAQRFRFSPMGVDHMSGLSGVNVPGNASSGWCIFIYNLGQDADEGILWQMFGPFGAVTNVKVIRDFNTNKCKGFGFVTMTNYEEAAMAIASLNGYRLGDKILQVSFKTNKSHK
UniProt Q9GZV4: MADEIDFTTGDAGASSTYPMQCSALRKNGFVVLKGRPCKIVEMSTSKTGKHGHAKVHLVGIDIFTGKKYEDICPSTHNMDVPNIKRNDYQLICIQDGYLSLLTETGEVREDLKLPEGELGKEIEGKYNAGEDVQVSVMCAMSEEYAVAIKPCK
UniProt Q9P0I2: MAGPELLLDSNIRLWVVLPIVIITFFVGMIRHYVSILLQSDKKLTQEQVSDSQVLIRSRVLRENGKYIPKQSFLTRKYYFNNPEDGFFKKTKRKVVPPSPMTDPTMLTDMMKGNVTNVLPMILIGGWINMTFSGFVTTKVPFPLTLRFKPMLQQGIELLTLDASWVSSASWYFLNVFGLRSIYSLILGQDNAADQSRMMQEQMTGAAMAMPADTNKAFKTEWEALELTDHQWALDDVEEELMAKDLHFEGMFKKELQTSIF
UniProt O95163: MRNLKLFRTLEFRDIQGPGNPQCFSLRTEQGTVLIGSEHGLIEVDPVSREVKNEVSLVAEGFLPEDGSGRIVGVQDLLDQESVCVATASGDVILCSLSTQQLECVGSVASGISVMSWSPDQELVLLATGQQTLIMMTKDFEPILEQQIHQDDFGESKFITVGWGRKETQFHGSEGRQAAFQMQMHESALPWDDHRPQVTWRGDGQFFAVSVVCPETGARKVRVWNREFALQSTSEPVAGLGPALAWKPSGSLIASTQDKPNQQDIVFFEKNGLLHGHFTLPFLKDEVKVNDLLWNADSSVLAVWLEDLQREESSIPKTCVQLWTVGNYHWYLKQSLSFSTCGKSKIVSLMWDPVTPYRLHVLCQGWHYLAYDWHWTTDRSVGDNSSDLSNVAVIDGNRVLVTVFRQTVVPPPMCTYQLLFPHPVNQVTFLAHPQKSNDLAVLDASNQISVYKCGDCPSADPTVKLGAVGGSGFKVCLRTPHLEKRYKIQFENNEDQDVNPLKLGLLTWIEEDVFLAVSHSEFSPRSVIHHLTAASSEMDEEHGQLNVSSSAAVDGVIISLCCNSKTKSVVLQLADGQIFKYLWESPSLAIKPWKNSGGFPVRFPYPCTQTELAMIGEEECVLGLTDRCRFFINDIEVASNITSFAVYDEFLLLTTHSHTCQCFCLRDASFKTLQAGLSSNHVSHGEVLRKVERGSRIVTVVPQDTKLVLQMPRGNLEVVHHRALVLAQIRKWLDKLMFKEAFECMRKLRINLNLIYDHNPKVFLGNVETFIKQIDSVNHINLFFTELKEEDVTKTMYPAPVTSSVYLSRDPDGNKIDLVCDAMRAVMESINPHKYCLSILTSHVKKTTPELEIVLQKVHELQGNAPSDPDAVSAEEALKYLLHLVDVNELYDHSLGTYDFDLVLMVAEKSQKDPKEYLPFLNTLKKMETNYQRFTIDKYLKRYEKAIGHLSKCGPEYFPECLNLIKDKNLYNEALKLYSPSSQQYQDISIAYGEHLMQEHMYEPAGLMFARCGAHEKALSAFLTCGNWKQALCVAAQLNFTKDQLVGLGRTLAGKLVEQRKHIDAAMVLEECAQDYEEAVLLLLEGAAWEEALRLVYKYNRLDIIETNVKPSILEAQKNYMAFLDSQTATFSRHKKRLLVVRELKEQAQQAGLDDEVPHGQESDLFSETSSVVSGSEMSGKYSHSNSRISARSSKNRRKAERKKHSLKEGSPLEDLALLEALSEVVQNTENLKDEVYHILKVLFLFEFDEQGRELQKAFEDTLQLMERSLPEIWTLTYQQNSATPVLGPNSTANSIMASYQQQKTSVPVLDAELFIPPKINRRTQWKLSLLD
UniProt Q15369, whole entry, looked up: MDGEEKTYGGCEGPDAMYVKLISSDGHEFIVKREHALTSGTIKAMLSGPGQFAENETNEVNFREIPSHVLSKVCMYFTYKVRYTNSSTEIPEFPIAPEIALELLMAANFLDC
UniProt Q9H4G0, whole entry, looked up: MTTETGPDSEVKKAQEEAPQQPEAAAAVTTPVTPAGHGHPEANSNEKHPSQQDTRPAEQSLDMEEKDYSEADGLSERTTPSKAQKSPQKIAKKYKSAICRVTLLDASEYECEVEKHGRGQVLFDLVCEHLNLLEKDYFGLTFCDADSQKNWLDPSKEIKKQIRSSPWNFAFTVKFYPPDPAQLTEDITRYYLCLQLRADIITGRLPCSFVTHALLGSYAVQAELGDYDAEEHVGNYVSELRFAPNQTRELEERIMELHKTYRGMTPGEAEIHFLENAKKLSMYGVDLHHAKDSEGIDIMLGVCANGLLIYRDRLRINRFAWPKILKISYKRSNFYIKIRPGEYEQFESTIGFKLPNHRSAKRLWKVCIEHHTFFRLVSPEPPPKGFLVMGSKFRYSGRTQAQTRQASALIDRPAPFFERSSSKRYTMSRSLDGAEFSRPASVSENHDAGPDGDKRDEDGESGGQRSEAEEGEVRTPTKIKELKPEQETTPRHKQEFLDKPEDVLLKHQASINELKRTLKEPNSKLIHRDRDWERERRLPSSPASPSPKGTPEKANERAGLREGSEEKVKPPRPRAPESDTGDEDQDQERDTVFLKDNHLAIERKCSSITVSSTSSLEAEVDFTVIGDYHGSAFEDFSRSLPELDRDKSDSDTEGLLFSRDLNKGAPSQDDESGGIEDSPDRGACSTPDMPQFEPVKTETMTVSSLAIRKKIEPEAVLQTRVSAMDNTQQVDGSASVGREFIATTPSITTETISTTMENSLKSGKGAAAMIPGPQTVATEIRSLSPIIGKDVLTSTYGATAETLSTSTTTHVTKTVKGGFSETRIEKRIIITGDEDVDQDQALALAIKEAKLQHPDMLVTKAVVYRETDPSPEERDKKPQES
UniProt O14638, whole entry, looked up: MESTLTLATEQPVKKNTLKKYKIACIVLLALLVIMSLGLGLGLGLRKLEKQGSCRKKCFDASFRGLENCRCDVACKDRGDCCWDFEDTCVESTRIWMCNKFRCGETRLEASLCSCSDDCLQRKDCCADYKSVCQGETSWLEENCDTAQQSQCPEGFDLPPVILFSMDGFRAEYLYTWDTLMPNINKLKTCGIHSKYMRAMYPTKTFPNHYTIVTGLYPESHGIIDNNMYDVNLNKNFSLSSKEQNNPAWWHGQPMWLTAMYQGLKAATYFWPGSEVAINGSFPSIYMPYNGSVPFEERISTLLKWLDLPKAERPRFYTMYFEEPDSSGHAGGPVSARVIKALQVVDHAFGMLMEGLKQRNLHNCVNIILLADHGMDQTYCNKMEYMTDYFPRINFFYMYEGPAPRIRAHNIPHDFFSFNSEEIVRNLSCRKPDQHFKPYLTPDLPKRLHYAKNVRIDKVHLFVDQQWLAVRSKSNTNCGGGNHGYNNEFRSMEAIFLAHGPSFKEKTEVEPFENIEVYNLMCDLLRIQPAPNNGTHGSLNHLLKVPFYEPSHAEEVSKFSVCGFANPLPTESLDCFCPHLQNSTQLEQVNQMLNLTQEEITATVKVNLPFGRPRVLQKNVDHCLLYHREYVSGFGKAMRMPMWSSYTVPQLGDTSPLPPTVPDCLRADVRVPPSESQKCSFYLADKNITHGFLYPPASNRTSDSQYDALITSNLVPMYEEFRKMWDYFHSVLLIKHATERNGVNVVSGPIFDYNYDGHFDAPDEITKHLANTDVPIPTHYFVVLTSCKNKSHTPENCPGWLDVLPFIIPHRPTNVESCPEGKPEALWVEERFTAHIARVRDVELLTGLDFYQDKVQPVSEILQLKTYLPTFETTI
UniProt Q9Y282: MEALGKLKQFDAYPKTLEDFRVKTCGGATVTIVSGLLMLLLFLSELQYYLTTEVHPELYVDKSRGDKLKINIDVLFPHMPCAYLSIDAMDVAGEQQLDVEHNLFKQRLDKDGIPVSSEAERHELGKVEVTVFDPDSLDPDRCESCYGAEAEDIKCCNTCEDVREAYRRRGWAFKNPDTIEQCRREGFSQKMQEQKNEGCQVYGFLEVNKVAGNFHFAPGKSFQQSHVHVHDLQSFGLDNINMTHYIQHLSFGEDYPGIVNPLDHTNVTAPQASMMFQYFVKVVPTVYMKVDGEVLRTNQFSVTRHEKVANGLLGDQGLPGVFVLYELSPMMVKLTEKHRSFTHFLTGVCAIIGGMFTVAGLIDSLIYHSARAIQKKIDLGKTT

What was measured:
Assay in all cases: log2 fold change, soluble protein after heating vs DMSO (PISA); higher = thermal stabilisation; K562 lysate, 10 uM; active = over 0.2 and 3.5 SD of the protein, either way, in both replicates (recomputed)
[1] = compound: C1=CC=C(C=C1)[C@H](COC2=CC3=C(C=C2)NC(=O)N3)NC(=O)C4=CC=CN(C4=O)CC5=CC(=C(C=C5)F)F
Outline: (§1)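 The values are log-two fold changes in thermal stability compared with solvent controls and come from duplicates. They were obtained by TMTpro 16plex LC-MS/MS, with channel sums equalised, on the supernatant after 21,000xg for 90 min. That supernatant came from crude K562 extract at 1 mg/mL protein treated with 10 μM compound for 30 min, heated for 3 min across 48°C-58°C, pooled and brought to 0.5% NP-40 at 4°C.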

[2] = compound: CC1=C(SC2=C1C(=N[C@H](C3=NN=C(N32)C)CC(=O)N)C4=CC=C(C=C4)Cl)C
Outline: as §1

[3] = compound: CC1=C2C(=CC=C1)N=C(N(C2=O)C3=CC=CC=C3C)CN4C=NC5=C(N=CN=C54)N
Outline: as §1

[4] = compound: Cc1sc2c(c1C)C(c1ccc(Cl)cc1)=N[C@@H](CC(=O)OC(C)(C)C)c1nnc(C)n1-2
Outline: as §1

[5] = compound: c1ccc([C@@H]2C[C@H]2NC2CCNCC2)cc1
Outline: as §1

Measured: log2 fold change

EIF3G (UniProt O75821)
inactive: [1] -0.024 | [2] 0.013 | [3] 0.015 | [4] -0.04 | [5] 0.017

ERH (UniProt P84090)
inactive: [1] 0.061 | [2] 0.02 | [3] -0.094 | [4] 0.001 | [5] 0.034

EPRS (UniProt P07814)
inactive: [1] -0.005 | [2] 0.002 | [3] 0.003 | [4] 0.043 | [5] 0.016

EMC1 (UniProt Q8N766)
inactive: [1] -0.011 | [2] 0.013 | [3] 0.008 | [4] 0.004 | [5] -0.021

EIF2AK1 (UniProt Q9BQI3)
inactive: [1] 0.006 | [2] -0.035 | [3] -0.007 | [4] -0.022 | [5] -0.041

EIF3F (UniProt O00303)
inactive: [1] -0.013 | [2] -0.029 | [3] 0.034 | [4] 0.013 | [5] 0.037

ENOSF1 (UniProt Q7L5Y1)
inactive: [1] 0.02 | [2] 0.012 | [3] -0.011 | [4] -0.013 | [5] -0.012

EIF2B2 (UniProt P49770)
inactive: [1] -0.005 | [2] -0.006 | [3] -0.003 | [4] 0.031 | [5] 0.016

ERCC5 (UniProt P28715)
inactive: [1] 0.022 | [2] 0.027 | [3] -0.029 | [4] -0.031 | [5] -0.018

ELAVL1 isoform 2 (UniProt Q15717)
inactive: [1] -0.038 | [2] 0 | [3] -0.017 | [4] 0.066 | [5] 0.052

EPB41, A0A2R8Y783
inactive: [1] -0.056 | [2] -0.031 | [3] 0.142 | [4] -0.131 | [5] 0.033

EIF5A2 (UniProt Q9GZV4)
inactive: [1] 0.025 | [2] 0.01 | [3] 0.017 | [4] -0.108 | [5] -0.058

EMC3 (UniProt Q9P0I2)
inactive: [1] -0.021 | [2] 0.041 | [3] 0.001 | [4] -0.051 | [5] 0.044

EPS15 (UniProt P42566)
inactive: [1] 0.025 | [2] 0.007 | [3] 0 | [4] 0.004 | [5] 0.011

ELP1 (UniProt O95163)
inactive: [1] 0.014 | [2] 0.005 | [3] 0.021 | [4] -0.03 | [5] -0.051

ELOC (UniProt Q15369)
inactive: [1] -0.063 | [2] 0.011 | [3] 0.006 | [4] 0.053 | [5] 0.032

ERCC6L (UniProt Q2NKX8)
inactive: [1] -0.006 | [2] 0.044 | [3] 0.058 | [4] 0.023 | [5] 0.033

ERAP1 isoform 2 (UniProt Q9NZ08)
inactive: [1] 0.021 | [2] 0.011 | [3] 0 | [4] 0.054 | [5] 0.018

ERGIC1 (UniProt Q969X5)
inactive: [1] 0.063 | [2] 0.025 | [3] 0.035 | [4] 0.063 | [5] 0.011

Two entries drawn at random from the list so far, as already listed:
EPS15 (UniProt P42566)
inactive: [1] 0.025 | [2] 0.007 | [3] 0 | [4] 0.004 | [5] 0.011

ELP1 (UniProt O95163)
inactive: [1] 0.014 | [2] 0.005 | [3] 0.021 | [4] -0.03 | [5] -0.051

(further entries)

EPB41L1 (UniProt Q9H4G0)
inactive: [1] -0.018 | [2] 0.073 | [3] -0.037 | [4] -0.112 | [5] 0.021

ENO1, A0A2R8YEM5
inactive: [1] 0.026 | [2] -0.096 | [3] -0.048 | [4] -0.028 | [5] -0.21

ENPP3 (UniProt O14638)
inactive: [1] 0.079 | [2] 0.034 | [3] 0.006 | [4] -0.047 | [5] -0.036

EPHX2 (UniProt P34913)
inactive: [1] 0.021 | [2] 0.006 | [3] 0 | [4] 0.119 | [5] -0.012

ERGIC3 isoform 3 (UniProt Q9Y282)
inactive: [1] -0.084 | [2] 0.036 | [3] -0.058 | [4] 0.062 | [5] 0.034

EML2 isoform 3 (UniProt O95834)
inactive: [1] -0.05 | [2] 0.018 | [3] -0.016 | [4] 0.027 | [5] 0.067
